Experimental data taken from publication PMC6367455.
These are yes or no findings as the source states them, for the method shown. In cells and extracts the contact can be indirect. These calls come from enrichment with a bait or labelling near it, and not all partners need be listed. For some of these results: No binding means not detected with the bait. Tags and fused reporters may be left off the sequences shown.

Chains of the proteins cited; added tags and fusions are not shown.
UniProt Q4KWH8: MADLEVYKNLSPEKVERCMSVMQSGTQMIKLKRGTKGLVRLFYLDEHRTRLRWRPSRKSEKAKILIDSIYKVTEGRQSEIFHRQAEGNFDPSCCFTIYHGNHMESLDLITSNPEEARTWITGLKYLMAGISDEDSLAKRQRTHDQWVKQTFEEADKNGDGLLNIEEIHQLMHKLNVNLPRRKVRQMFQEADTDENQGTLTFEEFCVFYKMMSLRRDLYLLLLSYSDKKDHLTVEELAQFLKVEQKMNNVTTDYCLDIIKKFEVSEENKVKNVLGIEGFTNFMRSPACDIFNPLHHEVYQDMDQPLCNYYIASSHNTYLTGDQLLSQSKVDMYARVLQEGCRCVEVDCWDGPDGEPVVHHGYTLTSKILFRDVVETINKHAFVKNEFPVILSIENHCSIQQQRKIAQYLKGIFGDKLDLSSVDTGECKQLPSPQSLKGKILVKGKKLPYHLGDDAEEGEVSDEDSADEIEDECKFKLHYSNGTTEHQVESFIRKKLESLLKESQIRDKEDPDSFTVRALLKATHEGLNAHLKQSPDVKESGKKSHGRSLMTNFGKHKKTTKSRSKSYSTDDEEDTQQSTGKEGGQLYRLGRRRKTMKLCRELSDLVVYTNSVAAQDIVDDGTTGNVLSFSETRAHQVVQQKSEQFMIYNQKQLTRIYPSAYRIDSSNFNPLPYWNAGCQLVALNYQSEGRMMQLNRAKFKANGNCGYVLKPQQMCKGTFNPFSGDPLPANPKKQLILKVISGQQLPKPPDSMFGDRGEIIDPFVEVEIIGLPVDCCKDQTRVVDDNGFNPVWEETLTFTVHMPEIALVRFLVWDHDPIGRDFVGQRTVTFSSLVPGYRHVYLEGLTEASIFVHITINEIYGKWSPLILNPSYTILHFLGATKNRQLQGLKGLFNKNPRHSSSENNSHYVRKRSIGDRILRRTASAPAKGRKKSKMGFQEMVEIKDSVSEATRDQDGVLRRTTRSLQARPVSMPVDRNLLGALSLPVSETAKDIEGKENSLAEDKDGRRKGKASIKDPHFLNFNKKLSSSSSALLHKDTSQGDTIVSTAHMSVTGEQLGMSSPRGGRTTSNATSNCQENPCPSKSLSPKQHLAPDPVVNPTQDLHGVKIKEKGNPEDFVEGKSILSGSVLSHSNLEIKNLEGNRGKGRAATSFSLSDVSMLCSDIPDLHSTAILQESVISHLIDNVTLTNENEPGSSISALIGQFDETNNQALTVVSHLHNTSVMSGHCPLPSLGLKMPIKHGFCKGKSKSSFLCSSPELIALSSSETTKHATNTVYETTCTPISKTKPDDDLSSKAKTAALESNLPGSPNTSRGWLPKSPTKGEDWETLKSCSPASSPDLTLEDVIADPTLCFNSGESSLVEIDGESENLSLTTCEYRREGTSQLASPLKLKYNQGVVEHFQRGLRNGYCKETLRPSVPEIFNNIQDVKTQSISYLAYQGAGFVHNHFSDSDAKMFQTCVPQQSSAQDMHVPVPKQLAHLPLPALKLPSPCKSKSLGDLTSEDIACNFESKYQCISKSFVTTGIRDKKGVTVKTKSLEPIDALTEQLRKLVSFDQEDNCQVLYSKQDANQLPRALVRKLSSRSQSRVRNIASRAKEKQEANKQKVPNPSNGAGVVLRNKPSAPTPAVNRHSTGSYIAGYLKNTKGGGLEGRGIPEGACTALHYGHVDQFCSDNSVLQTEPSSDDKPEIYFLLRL
UniProt Q9UBN7: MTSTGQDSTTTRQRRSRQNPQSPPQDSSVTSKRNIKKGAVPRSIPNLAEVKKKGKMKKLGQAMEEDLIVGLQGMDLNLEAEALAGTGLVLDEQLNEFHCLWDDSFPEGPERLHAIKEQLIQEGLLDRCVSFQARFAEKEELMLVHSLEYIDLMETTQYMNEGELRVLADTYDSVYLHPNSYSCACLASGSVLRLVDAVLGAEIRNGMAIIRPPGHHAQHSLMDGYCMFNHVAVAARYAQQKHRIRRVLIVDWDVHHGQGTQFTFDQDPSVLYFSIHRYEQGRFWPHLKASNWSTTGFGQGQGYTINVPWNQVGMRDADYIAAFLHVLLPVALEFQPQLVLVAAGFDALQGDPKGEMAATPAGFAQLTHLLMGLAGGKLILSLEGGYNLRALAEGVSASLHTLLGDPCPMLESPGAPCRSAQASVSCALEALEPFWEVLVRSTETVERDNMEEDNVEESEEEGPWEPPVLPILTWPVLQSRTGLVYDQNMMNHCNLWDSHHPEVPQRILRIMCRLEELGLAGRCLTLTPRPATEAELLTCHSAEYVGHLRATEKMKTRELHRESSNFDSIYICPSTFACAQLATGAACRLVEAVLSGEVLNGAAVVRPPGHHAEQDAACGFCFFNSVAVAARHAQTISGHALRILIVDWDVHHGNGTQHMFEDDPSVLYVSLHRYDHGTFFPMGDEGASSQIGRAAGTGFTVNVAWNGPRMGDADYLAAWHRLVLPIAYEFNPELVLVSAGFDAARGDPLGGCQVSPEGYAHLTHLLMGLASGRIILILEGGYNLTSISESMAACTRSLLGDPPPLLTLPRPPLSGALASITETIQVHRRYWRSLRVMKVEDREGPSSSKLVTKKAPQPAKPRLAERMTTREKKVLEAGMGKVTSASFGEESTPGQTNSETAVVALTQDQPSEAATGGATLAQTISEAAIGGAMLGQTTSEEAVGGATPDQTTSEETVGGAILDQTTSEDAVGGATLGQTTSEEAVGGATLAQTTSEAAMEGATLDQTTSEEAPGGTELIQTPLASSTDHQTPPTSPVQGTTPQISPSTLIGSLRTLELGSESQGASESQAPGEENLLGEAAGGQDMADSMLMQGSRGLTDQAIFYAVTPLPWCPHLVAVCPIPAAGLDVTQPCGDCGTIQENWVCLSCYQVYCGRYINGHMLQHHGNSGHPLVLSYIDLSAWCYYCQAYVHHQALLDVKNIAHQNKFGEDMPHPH

Columns and labels:
[1] = biological target: T1, FLCN-GFP fusion protein (Folliculin) (human) (UniProt Q8NFG4); test: affinity purification with mass spectrometry; FLCN-GFP precipitated on GFP-Trap-A beads from lysates of Elf1 FLCN KO + FLCN-GFP hESC, naive (2iL-I-F) and exiting the naive state (3D TeSR); plus against minus doxycycline; label free quantification, 5% FDR
T1 sequence: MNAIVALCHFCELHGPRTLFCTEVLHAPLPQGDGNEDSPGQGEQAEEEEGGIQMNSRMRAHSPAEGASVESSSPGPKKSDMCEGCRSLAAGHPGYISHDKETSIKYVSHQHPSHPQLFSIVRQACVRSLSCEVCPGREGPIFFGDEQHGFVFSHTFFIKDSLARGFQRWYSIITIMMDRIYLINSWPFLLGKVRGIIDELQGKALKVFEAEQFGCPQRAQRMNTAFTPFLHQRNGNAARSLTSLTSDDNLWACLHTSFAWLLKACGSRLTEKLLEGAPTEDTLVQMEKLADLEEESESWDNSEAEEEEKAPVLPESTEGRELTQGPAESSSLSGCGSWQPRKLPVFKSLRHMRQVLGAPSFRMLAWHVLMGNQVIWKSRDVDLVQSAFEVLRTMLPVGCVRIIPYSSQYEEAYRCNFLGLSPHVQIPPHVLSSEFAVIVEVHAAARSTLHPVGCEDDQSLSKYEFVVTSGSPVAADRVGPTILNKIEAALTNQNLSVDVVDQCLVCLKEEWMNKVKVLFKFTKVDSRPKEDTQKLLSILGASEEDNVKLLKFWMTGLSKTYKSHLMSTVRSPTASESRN

[2] = biological target: T1, FLCN-GFP fusion protein (Folliculin) (human); test: affinity purification with mass spectrometry; as a1, the sample of naive hESC (2iL-I-F) alone
[3] = biological target: T1, FLCN-GFP fusion protein (Folliculin) (human); test: as above; remark: listed apart in the source

## PLCH1 (from UniProt Q4KWH8 1-1693)
[1]
  binding: binds
[2]
  binding: no binding (only in naïve hESC)

## HDAC6 (from UniProt Q9UBN7 1-1215)
[1]
  binding: binds

## Caspase 14 (human (endogenous in Elf1 hESC))
[1]
  binding: binds

B1: FLCN Interacting Protein 1 (FNIP1) (protein, UniProt Q8TF40 1-1166)
chain: MAPTLFQKLFSKRTGLGAPGRDARDPDCGFSWPLPEFDPSQIRLIVYQDCERRGRNVLFDSSVKRRNEDISVSKLGSDAQVKVFGKCCQLKPGGDSSSSLDSSVTSSSDIKDQCLKYQGSRCSSDANMLGEMMFGSVAMSYKGSTLKIHQIRSPPQLMLSKVFTARTGSSICGSLNTLQDSLEFINQDNNTLKADNNTVINGLLGNIGLSQFCSPRRAFSEQGPLRLIRSASFFAVHSNPMDMPGRELNEDRDSGIARSASLSSLLITPFPSPNSSLTRSCASSYQRRWRRSQTTSLENGVFPRWSIEESFNLSDESCGPNPGIVRKKKIAIGVIFSLSKDEDENNKFNEFFFSHFPLFESHMNKLKSAIEQAMKMSRRSADASQRSLAYNRIVDALNEFRTTICNLYTMPRIGEPVWLTMMSGTPEKNHLCYRFMKEFTFLMENASKNQFLPALITAVLTNHLAWVPTVMPNGQPPIKIFLEKHSSQSVDMLAKTHPYNPLWAQLGDLYGAIGSPVRLARTVVVGKRQDMVQRLLYFLTYFIRCSELQETHLLENGEDEAIVMPGTVITTTLEKGEIEESEYVLVTMHRNKSSLLFKESEEIRTPNCNCKYCSHPLLGQNVENISQQEREDIQNSSKELLGISDECQMISPSDCQEENAVDVKQYRDKLRTCFDAKLETVVCTGSVPVDKCALSESGLESTEETWQSEKLLDSDSHTGKAMRSTGMVVEKKPPDKIVPASFSCEAAQTKVTFLIGDSMSPDSDTELRSQAVVDQITRHHTKPLKEERGAIDQHQETKQTTKDQSGESDTQNMVSEEPCELPCWNHSDPESMSLFDEYFNDDSIETRTIDDVPFKTSTDSKDHCCMLEFSKILCTKNNKQNNEFCKCIETVPQDSCKTCFPQQDQRDTLSILVPHGDKESSDKKIAVGTEWDIPRNESSDSALGDSESEDTGHDMTRQVSSYYGGEQEDWAEEDEIPFPGSKLIEVSAVQPNIANFGRSLLGGYCSSYVPDFVLQGIGSDERFRQCLMSDLSHAVQHPVLDEPIAEAVCIIADMDKWTVQVASSQRRVTDNKLGKEVLVSSLVSNLLHSTLQLYKHNLSPNFCVMHLEDRLQELYFKSKMLSEYLRGQMRVHVKELGVVLGIESSDLPLLAAVASTHSPYVAQILL
[1]
  binding: binds

B2: CD59 (protein, UniProt P13987 26-102)
chain: LQCYNCPNPTADCKTAVNCSSDFDACLITKAGLQVYNKCWKFEHCNFNDVTTRLRENELTYYCCKKDLCNFNEQLEN
[1]
  binding: binds
[3]
  binding: no binding (only in naïve hESC)

B3: TOR Signaling Pathway Regulator (TIPRL) (protein, UniProt O75663 1-272)
chain: MMIHGFQSSHRDFCFGPWKLTASKTHIMKSADVEKLADELHMPSLPEMMFGDNVLRIQHGSGFGIEFNATDALRCVNNYQGMLKVACAEEWQESRTEGEHSKEVIKPYDWTYTTDYKGTLLGESLKLKVVPTTDHIDTEKLKAREQIKFFEEVLLFEDELHDHGVSSLSVKIRVMPSSFFLLLRFFLRIDGVLIRMNDTRLYHEADKTYMLREYTSRESKISSLMHVPPSLFTEPNEISQYLPIKEAVCEKLIFPERIDPNPADSQKSTQVE
[1]
  binding: binds
[3]
  binding: no binding (only in naïve hESC)

B4: ARAP1 (protein, UniProt Q96P48 1-1450)
chain: MAEAGDAALSVAEWLRALHLEQYTGLFEQHGLVWATECQGLSDTRLMDMGMLLPGHRRRILAGLLRAHTSPAPAPRPTPRPVPMKRHIFRSPPVPATPPEPLPTTTEDEGLPAAPPIPPRRSCLPPTCFTTPSTAAPDPVLPPLPAKRHLAELSVPPVPPRTGPPRLLVSLPTKEEESLLPSLSSPPQPQSEEPLSTLPQGPPQPPSPPPCPPEIPPKPVRLFPEFDDSDYDEVPEEGPGAPARVMTKKEEPPPSRVPRAVRVASLLSEGEELSGDDQGDEEEDDHAYEGVPNGGWHTSSLSLSLPSTIAAPHPMDGPPGGSTPVTPVIKAGWLDKNPPQGSYIYQKRWVRLDTDHLRYFDSNKDAYSKRFISVACISHVAAIGDQKFEVITNNRTFAFRAESDVERKEWMQALQQAMAEQRARARLSSAYLLGVPGSEQPDRAGSLELRGFKNKLYVAVVGDKVQLYKNLEEYHLGIGITFIDMSVGNVKEVDRRSFDLTTPYRIFSFSADSELEKEQWLEAMQGAIAEALSTSEVAERIWAAAPNRFCADCGAPQPDWASINLCVVICKRCAGEHRGLGAGVSKVRSLKMDRKVWTETLIELFLQLGNGAGNRFWAANVPPSEALQPSSSPSTRRCHLEAKYREGKYRRYHPLFGNQEELDKALCAAVTTTDLAETQALLGCGAGINCFSGDPEAPTPLALAEQAGQTLQMEFLRNNRTTEVPRLDSMKPLEKHYSVVLPTVSHSGFLYKTASAGKLLQDRRAREEFSRRWCVLGDGVLSYFENERAVTPNGEIRASEIVCLAVPPPDTHGFEHTFEVYTEGERLYLFGLESAEQAHEWVKCIAKAFVPPLAEDLLARDFERLGRLPYKAGLSLQRAQEGWFSLSGSELRAVFPEGPCEEPLQLRKLQELSIQGDSENQVLVLVERRRTLYIQGERRLDFMGWLGAIQKAAASMGDTLSEQQLGDSDIPVIVYRCVDYITQCGLTSEGIYRKCGQTSKTQRLLESLRQDARSVHLKEGEQHVDDVSSALKRFLRDLPDGLFTRAQRLTWLEASEIEDEEEKVSRYRELLVRLPPVNRATVKALISHLYCVQCFSDTNQMNVHNLAIVFGPTLFQTDGQDYKAGRVVEDLINHYVVVFSVDEEELRKQREEITAIVKMRVAGTASGTQHAGDFICTVYLEEKKAETEQHIKVPASMTAEELTLEILDRRNVGIREKDYWTCFEVNEREEAERPLHFAEKVLPILHGLGTDSHLVVKKHQAMEAMLLYLASRVGDTKHGMMKFREDRSLLGLGLPSGGFHDRYFILNSSCLRLYKEVRSQRPWSGAPETSHRPEKEWPIKSLKVYLGVKKKLRPPTCWGFTVVHETEKHEKQQWYLCCDTQMELREWFATFLFVQHDGLVWPSEPSRVSRAVPEVRLGSVSLIPLRGSENEMRRSVAAFTADPLSLLRNV
[1]
  binding: binds
[3]
  binding: no binding (only in naïve hESC)

B5: RAP2B (protein, UniProt P61225 1-183)
chain: MREYKVVVLGSGGVGKSALTVQFVTGSFIEKYDPTIEDFYRKEIEVDSSPSVLEILDTAGTEQFASMRDLYIKNGQGFILVYSLVNQQSFQDIKPMRDQIIRVKRYERVPMILVGNKVDLEGEREVSYGEGKALAEEWSCPFMETSAKNKASVDELFAEIVRQMNYAAQPNGDEGCCSACVIL
[1]
  binding: binds
[3]
  binding: no binding (only in naïve hESC)
